# Results taken from the supplement of paper PMC11732987, “Enantioselective OTUD7B fragment discovery through chemoproteomics screening and high-throughput optimisation” (Communications Chemistry, 2025).
# Protein sequences, listed by entry. Tags and fused reporters are not part of them. Lines headed by an entry give the natural chain unless they say otherwise; changes in a name come on top. Residues count along the entry.
# UniProt Q9Y490, 722-741: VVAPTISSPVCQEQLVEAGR
# UniProt Q04727: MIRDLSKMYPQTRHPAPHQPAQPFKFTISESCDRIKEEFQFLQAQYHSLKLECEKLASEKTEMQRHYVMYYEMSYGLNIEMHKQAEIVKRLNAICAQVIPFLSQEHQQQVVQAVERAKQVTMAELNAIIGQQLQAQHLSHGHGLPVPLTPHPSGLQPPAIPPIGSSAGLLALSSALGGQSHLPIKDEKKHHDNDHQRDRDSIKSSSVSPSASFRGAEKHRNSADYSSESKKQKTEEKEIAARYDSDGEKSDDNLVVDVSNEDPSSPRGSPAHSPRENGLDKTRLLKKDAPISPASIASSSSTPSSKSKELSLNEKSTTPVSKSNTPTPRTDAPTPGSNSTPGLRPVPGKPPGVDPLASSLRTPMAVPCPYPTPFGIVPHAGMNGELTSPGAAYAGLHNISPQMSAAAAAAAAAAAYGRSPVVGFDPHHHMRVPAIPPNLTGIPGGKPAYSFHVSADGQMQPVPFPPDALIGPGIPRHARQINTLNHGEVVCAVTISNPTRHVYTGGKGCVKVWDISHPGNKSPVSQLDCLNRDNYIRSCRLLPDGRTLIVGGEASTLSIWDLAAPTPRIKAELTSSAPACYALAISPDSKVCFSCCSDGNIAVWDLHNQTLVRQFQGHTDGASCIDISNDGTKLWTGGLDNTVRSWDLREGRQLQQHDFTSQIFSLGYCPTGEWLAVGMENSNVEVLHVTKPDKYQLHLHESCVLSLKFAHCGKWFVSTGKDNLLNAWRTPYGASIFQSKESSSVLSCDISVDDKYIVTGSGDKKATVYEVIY
# UniProt Q9HCJ0: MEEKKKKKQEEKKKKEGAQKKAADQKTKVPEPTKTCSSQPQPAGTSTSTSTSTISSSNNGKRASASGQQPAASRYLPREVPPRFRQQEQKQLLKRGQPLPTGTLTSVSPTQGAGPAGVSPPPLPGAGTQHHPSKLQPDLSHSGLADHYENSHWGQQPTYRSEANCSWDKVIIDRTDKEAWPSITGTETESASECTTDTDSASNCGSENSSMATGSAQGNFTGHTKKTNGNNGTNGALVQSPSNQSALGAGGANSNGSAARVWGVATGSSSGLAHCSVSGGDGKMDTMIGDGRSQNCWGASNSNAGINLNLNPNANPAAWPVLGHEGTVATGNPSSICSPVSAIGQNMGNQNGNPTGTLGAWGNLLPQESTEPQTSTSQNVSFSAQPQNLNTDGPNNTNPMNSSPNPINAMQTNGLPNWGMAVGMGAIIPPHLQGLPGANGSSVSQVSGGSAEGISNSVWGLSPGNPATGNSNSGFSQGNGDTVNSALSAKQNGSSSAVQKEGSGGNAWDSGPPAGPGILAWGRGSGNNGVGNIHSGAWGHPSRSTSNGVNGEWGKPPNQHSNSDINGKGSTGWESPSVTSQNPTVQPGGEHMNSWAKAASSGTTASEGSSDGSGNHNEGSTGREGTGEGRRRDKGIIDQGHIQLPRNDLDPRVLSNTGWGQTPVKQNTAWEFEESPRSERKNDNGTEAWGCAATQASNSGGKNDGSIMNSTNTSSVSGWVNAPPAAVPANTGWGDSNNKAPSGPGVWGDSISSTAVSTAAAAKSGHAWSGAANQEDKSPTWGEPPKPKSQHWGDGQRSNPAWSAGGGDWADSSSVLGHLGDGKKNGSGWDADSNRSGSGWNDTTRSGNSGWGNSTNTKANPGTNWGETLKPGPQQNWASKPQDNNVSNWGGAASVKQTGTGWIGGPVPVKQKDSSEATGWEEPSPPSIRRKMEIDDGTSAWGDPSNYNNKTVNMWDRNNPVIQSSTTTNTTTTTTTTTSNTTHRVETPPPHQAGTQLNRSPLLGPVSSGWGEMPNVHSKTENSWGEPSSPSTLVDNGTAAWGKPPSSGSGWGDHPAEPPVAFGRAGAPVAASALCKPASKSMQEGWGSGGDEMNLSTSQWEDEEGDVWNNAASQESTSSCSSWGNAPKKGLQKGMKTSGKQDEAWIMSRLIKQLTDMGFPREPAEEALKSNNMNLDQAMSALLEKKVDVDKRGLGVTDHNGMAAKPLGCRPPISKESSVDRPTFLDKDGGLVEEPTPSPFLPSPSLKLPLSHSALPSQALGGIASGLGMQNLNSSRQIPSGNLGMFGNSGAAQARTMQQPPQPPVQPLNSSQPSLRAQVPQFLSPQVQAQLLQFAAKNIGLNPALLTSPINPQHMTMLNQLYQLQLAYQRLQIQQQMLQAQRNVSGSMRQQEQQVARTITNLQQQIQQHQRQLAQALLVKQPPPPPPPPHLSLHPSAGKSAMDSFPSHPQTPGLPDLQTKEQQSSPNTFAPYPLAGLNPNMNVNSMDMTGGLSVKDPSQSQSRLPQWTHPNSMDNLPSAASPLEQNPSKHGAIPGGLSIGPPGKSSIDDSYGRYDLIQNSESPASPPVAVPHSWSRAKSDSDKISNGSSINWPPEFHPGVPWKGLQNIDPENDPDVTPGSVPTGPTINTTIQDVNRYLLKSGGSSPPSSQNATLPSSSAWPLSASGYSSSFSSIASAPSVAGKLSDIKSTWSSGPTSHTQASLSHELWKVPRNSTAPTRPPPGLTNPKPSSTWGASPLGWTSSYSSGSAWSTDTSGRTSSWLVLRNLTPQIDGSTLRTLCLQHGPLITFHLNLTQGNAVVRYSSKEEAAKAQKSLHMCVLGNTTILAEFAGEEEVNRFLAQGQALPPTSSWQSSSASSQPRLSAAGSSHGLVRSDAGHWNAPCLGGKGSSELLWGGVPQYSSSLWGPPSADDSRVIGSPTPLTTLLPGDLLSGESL
# UniProt Q9ULW0: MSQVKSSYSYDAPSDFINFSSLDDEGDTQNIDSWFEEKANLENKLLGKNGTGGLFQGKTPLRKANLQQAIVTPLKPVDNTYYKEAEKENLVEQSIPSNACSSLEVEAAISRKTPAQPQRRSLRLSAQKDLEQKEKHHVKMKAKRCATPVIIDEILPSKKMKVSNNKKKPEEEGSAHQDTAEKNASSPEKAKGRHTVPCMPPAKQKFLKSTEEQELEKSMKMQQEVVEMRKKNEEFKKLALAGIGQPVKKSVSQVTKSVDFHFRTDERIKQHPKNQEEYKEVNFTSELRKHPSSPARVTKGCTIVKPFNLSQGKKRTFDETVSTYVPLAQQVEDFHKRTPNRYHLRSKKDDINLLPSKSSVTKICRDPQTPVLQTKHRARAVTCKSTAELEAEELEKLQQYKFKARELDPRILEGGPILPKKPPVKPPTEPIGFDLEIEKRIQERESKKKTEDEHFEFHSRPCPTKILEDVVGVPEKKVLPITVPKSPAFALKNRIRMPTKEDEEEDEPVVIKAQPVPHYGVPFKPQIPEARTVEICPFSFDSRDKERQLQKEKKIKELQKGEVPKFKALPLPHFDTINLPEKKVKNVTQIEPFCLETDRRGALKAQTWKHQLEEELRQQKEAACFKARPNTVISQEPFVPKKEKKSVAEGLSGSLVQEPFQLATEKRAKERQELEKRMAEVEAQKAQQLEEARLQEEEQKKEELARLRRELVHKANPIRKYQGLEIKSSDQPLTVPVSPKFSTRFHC
# UniProt P19474, 456-475: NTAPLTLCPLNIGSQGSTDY
# UniProt Q92545, 1174-1194: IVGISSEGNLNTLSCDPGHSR
# UniProt Q92547, whole entry, looked up: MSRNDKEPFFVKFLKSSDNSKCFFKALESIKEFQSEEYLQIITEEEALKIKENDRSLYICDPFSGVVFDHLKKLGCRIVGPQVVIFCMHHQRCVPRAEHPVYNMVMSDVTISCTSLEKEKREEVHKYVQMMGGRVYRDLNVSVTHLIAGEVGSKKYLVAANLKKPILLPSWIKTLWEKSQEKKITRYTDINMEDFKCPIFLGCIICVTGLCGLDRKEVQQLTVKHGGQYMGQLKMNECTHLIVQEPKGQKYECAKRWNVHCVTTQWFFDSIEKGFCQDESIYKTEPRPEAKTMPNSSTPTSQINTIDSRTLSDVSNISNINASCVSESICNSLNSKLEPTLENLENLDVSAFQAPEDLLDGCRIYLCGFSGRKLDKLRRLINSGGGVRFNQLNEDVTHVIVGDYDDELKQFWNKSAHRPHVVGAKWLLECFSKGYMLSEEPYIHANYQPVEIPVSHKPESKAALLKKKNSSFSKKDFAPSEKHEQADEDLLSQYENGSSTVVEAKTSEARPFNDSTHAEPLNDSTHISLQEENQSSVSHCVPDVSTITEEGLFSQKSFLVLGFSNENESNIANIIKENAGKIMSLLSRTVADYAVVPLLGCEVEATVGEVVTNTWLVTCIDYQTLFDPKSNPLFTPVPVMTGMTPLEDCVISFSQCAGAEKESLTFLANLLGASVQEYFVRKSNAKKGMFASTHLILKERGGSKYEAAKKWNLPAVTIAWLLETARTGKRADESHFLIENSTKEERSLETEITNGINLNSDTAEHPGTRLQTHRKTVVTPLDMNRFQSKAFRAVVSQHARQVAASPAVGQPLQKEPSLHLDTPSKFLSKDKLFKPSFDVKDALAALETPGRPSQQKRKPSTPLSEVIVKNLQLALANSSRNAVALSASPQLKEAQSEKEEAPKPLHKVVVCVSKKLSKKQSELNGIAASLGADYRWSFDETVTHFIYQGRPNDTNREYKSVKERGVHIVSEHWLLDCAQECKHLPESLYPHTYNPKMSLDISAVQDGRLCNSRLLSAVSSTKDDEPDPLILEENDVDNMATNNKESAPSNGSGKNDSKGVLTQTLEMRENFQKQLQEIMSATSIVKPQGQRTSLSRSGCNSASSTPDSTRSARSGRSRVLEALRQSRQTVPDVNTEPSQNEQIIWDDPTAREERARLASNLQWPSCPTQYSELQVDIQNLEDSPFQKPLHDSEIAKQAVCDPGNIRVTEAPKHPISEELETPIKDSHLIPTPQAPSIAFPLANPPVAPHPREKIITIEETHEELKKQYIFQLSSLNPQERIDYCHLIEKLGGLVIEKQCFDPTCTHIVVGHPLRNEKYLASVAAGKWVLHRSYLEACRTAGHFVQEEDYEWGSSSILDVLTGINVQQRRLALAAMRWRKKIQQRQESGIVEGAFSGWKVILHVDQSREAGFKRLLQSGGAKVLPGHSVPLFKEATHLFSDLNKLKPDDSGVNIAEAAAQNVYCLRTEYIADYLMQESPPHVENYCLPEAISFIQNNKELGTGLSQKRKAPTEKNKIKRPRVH
# UniProt P51580: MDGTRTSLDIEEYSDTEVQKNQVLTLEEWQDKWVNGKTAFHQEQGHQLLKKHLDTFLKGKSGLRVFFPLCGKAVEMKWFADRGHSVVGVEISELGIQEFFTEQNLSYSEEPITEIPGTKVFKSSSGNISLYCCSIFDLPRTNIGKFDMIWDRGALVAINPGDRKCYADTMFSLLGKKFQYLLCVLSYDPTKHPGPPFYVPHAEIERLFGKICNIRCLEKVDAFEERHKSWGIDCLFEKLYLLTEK
# UniProt P82094, 399-426: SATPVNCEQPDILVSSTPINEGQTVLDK
# UniProt Q92973: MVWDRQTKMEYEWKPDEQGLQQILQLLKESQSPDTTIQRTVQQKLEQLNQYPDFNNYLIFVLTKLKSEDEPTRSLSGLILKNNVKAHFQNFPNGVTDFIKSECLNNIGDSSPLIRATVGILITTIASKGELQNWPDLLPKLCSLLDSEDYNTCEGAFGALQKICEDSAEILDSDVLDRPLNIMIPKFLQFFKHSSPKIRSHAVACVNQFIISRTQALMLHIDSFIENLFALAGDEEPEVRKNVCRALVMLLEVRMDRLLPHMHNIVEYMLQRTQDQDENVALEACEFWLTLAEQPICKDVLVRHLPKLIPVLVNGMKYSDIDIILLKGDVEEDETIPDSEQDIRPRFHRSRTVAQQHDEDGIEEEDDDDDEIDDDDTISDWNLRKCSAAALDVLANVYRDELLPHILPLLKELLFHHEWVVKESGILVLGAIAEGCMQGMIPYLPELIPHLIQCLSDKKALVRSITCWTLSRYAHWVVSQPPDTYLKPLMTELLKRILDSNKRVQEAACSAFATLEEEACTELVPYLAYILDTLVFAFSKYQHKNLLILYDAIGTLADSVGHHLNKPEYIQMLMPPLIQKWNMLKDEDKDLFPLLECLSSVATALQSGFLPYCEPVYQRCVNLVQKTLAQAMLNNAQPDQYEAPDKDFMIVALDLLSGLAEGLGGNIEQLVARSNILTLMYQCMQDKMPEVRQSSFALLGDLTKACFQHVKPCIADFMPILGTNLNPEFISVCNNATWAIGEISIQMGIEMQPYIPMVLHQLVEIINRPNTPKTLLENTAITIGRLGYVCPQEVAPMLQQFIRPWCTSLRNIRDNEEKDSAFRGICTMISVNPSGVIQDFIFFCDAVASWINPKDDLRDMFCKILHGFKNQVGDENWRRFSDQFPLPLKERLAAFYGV
# UniProt Q9Y296, whole entry, looked up: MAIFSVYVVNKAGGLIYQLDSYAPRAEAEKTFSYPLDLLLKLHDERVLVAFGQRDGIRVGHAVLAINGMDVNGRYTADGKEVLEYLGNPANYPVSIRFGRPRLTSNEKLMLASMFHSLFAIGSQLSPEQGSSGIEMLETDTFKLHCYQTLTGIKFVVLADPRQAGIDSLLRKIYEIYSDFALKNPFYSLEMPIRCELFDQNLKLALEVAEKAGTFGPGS
# UniProt O43715: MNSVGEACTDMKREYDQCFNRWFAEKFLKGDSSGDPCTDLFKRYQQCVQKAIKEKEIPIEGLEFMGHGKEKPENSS
# This is one part of the list. The data scatter; read single values as rough.
# Tests used:
# [1] = compound: ClCC(=O)N[C@@H]1CCCc2ccccc12; test: log2 mean competition ratio of IA-DTB cysteine labelling (DMSO/compound) (log2 ratio); higher = stronger cysteine engagement by compound; conditions: treatment time: 4 h, cell line lysate: HEK293T
# Protocol: (§1)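 IA-DTB competitive cysteine chemoproteomics in HEK293T RIPA lysate. Lysates were treated with compound 29 or 30 at 50 or 200 µM for 4 h, then IA-DTB (500 µM, 1 h), trypsin-digested, NeutrAvidin-enriched and analysed by diaPASEF. Competition ratio = intensity DMSO / intensity compound (n=4 treated, n=64 DMSO); binding: mean log2 CR ≥ 1 and p ≤ 0.05 plus QC filters. Target is the cysteine site.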
# [2] = compound: ClCC(=O)N[C@H]1CCCc2ccccc12; test: as above; conditions: treatment time: 4 h, cell line lysate: HEK293T
# Protocol: as §1
target,measurement,setting,value
TLN1 C732 (UniProt Q9Y490),log2 mean competition ratio,[1]; 50 µM,-0.464
same,log2 mean competition ratio,[1]; 200 µM,0.316
same,log2 mean competition ratio,[2]; 50 µM,-0.0483
same,log2 mean competition ratio,[2]; 200 µM,0.16
TONSL C1340 (UniProt Q96HA7),log2 mean competition ratio,[1]; 50 µM,-0.103
same,log2 mean competition ratio,[1]; 200 µM,0.23
same,log2 mean competition ratio,[2]; 200 µM,0.179
TLE4 C32 (UniProt Q04727),log2 mean competition ratio,[1]; 50 µM,0.0647
same,log2 mean competition ratio,[1]; 200 µM,0.23
same,log2 mean competition ratio,[2]; 50 µM,-0.0218
same,log2 mean competition ratio,[2]; 200 µM,0.0965
TNRC6B C557 (UniProt Q9UPQ9),log2 mean competition ratio,[1]; 50 µM,0.37
same,log2 mean competition ratio,[1]; 200 µM,0.106
same,log2 mean competition ratio,[2]; 50 µM,0.138
same,log2 mean competition ratio,[2]; 200 µM,0.332
TLN2 C289 (UniProt Q9Y4G6),log2 mean competition ratio,[1]; 50 µM,0.407
same,log2 mean competition ratio,[1]; 200 µM,0.00269
same,log2 mean competition ratio,[2]; 50 µM,-0.402
same,log2 mean competition ratio,[2]; 200 µM,-0.103
TNRC6C C1637 (UniProt Q9HCJ0),log2 mean competition ratio,[1]; 50 µM,0.362
same,log2 mean competition ratio,[1]; 200 µM,0.176
same,log2 mean competition ratio,[2]; 50 µM,0.41
same,log2 mean competition ratio,[2]; 200 µM,0.156
TPX2 C364 (UniProt Q9ULW0),log2 mean competition ratio,[1]; 50 µM,0.157
same,log2 mean competition ratio,[1]; 200 µM,0.121
same,log2 mean competition ratio,[2]; 50 µM,-0.212
same,log2 mean competition ratio,[2]; 200 µM,0.106
TMEM39B C67,log2 mean competition ratio,[1]; 50 µM,0.509
same,log2 mean competition ratio,[1]; 200 µM,0.0703
same,log2 mean competition ratio,[2]; 50 µM,0.451
same,log2 mean competition ratio,[2]; 200 µM,-0.0596
TRIM33 C849,log2 mean competition ratio,[1]; 50 µM,0.149
same,log2 mean competition ratio,[1]; 200 µM,0.00573
same,log2 mean competition ratio,[2]; 50 µM,0.346
same,log2 mean competition ratio,[2]; 200 µM,0.151
TRIM21 C463 (UniProt P19474),log2 mean competition ratio,[1]; 50 µM,-0.157
same,log2 mean competition ratio,[1]; 200 µM,-1.15
same,log2 mean competition ratio,[2]; 50 µM,-0.0925
same,log2 mean competition ratio,[2]; 200 µM,-0.461
TOP1 C386 (UniProt P11387),log2 mean competition ratio,[1]; 50 µM,-0.233
same,log2 mean competition ratio,[1]; 200 µM,-0.0382
same,log2 mean competition ratio,[2]; 50 µM,0.0118
same,log2 mean competition ratio,[2]; 200 µM,0.609
TMEM131L C1082,log2 mean competition ratio,[1]; 50 µM,0.353
same,log2 mean competition ratio,[1]; 200 µM,-0.0391
same,log2 mean competition ratio,[2]; 50 µM,0.268
same,log2 mean competition ratio,[2]; 200 µM,0.0631
TM2D3 C166 (UniProt Q9BRN9),log2 mean competition ratio,[1]; 50 µM,-0.268
same,log2 mean competition ratio,[1]; 200 µM,0.0236
same,log2 mean competition ratio,[2]; 50 µM,0.0933
same,log2 mean competition ratio,[2]; 200 µM,0.381
TMEM219 C201 (UniProt Q86XT9),log2 mean competition ratio,[1]; 50 µM,0.00401
same,log2 mean competition ratio,[1]; 200 µM,0.0697
same,log2 mean competition ratio,[2]; 50 µM,-1.04
same,log2 mean competition ratio,[2]; 200 µM,-0.103
TNIP2 C21 (UniProt Q8NFZ5),log2 mean competition ratio,[1]; 50 µM,-0.0739
same,log2 mean competition ratio,[1]; 200 µM,0.204
same,log2 mean competition ratio,[2]; 50 µM,-0.255
same,log2 mean competition ratio,[2]; 200 µM,0.171
TOP2B C271 (UniProt Q02880),log2 mean competition ratio,[1]; 50 µM,0.251
same,log2 mean competition ratio,[1]; 200 µM,0.196
same,log2 mean competition ratio,[2]; 50 µM,0.516
same,log2 mean competition ratio,[2]; 200 µM,0.238
TMEM131 C1188 (UniProt Q92545),log2 mean competition ratio,[1]; 50 µM,0.237
same,log2 mean competition ratio,[1]; 200 µM,0.481
same,log2 mean competition ratio,[2]; 50 µM,0.52
same,log2 mean competition ratio,[2]; 200 µM,0.283
TRIT1 C298 (UniProt Q9H3H1),log2 mean competition ratio,[1]; 50 µM,0.421
same,log2 mean competition ratio,[1]; 200 µM,0.0179
same,log2 mean competition ratio,[2]; 50 µM,-0.136
same,log2 mean competition ratio,[2]; 200 µM,-0.207
TOP2B C125 (UniProt Q02880),log2 mean competition ratio,[1]; 50 µM,0.125
same,log2 mean competition ratio,[1]; 200 µM,-0.142
same,log2 mean competition ratio,[2]; 50 µM,0.0578
same,log2 mean competition ratio,[2]; 200 µM,0.0903
TOPBP1 C276 (UniProt Q92547),log2 mean competition ratio,[1]; 50 µM,0.0617
same,log2 mean competition ratio,[1]; 200 µM,-0.0193
same,log2 mean competition ratio,[2]; 50 µM,-0.528
same,log2 mean competition ratio,[2]; 200 µM,-0.0721
TMEM129 C121,log2 mean competition ratio,[1]; 50 µM,0.372
same,log2 mean competition ratio,[1]; 200 µM,-0.134
same,log2 mean competition ratio,[2]; 50 µM,0.401
same,log2 mean competition ratio,[2]; 200 µM,-0.162
TPP2 C28,log2 mean competition ratio,[1]; 50 µM,-0.263
same,log2 mean competition ratio,[1]; 200 µM,0.00275
same,log2 mean competition ratio,[2]; 50 µM,-0.0587
same,log2 mean competition ratio,[2]; 200 µM,-0.0454
TOE1 C80 (UniProt Q96GM8),log2 mean competition ratio,[1]; 50 µM,0.00958
same,log2 mean competition ratio,[1]; 200 µM,0.365
same,log2 mean competition ratio,[2]; 50 µM,-0.342
same,log2 mean competition ratio,[2]; 200 µM,0.271
TPMT C234 (UniProt P51580),log2 mean competition ratio,[1]; 50 µM,0.222
same,log2 mean competition ratio,[1]; 200 µM,-0.248
same,log2 mean competition ratio,[2]; 50 µM,0.217
same,log2 mean competition ratio,[2]; 200 µM,-0.213
TMF1 C158 (UniProt P82094),log2 mean competition ratio,[1]; 50 µM,-0.538
same,log2 mean competition ratio,[1]; 200 µM,-0.264
same,log2 mean competition ratio,[2]; 50 µM,0.223
same,log2 mean competition ratio,[2]; 200 µM,-0.192
TP53BP1 C1178 (UniProt Q12888),log2 mean competition ratio,[1]; 50 µM,-0.356
same,log2 mean competition ratio,[1]; 200 µM,-0.58
same,log2 mean competition ratio,[2]; 50 µM,0.165
same,log2 mean competition ratio,[2]; 200 µM,-0.375
TNPO1 C862 (UniProt Q92973),log2 mean competition ratio,[1]; 50 µM,-0.197
same,log2 mean competition ratio,[1]; 200 µM,0.194
same,log2 mean competition ratio,[2]; 50 µM,-0.0815
same,log2 mean competition ratio,[2]; 200 µM,0.175
TNKS1BP1 C136 (UniProt Q9C0C2),log2 mean competition ratio,[1]; 50 µM,0.0397
same,log2 mean competition ratio,[1]; 200 µM,-0.0175
same,log2 mean competition ratio,[2]; 50 µM,0.278
same,log2 mean competition ratio,[2]; 200 µM,0.00604
TRAF2 C156 (UniProt Q12933),log2 mean competition ratio,[1]; 50 µM,-0.154
same,log2 mean competition ratio,[1]; 200 µM,0.0362
same,log2 mean competition ratio,[2]; 50 µM,-0.24
same,log2 mean competition ratio,[2]; 200 µM,-0.245
TRIO C28 (UniProt O75962),log2 mean competition ratio,[1]; 50 µM,-0.25
same,log2 mean competition ratio,[1]; 200 µM,-0.414
same,log2 mean competition ratio,[2]; 50 µM,0.127
same,log2 mean competition ratio,[2]; 200 µM,-0.373
TRAPPC4 C195 (UniProt Q9Y296),log2 mean competition ratio,[1]; 50 µM,0.305
same,log2 mean competition ratio,[1]; 200 µM,0.0775
same,log2 mean competition ratio,[2]; 50 µM,0.14
same,log2 mean competition ratio,[2]; 200 µM,0.101
TMEM201 C626 (UniProt Q5SNT2),log2 mean competition ratio,[1]; 50 µM,0.142
same,log2 mean competition ratio,[1]; 200 µM,-0.046
same,log2 mean competition ratio,[2]; 50 µM,0.245
same,log2 mean competition ratio,[2]; 200 µM,0.322
TPI1 C218 (UniProt P60174),log2 mean competition ratio,[1]; 50 µM,-0.136
same,log2 mean competition ratio,[1]; 200 µM,0.244
same,log2 mean competition ratio,[2]; 50 µM,-0.245
same,log2 mean competition ratio,[2]; 200 µM,0.218
TMF1 C405 (UniProt P82094),log2 mean competition ratio,[1]; 50 µM,-0.491
same,log2 mean competition ratio,[1]; 200 µM,-0.441
same,log2 mean competition ratio,[2]; 50 µM,0.413
same,log2 mean competition ratio,[2]; 200 µM,-0.48
TPI1 C67 (UniProt P60174),log2 mean competition ratio,[1]; 50 µM,0.28
same,log2 mean competition ratio,[1]; 200 µM,0.448
same,log2 mean competition ratio,[2]; 50 µM,0.281
same,log2 mean competition ratio,[2]; 200 µM,0.382
TK1 C230,log2 mean competition ratio,[1]; 50 µM,-0.23
same,log2 mean competition ratio,[1]; 200 µM,-0.201
same,log2 mean competition ratio,[2]; 50 µM,-0.0967
same,log2 mean competition ratio,[2]; 200 µM,0.214
TOPBP1 C238 (UniProt Q92547),log2 mean competition ratio,[1]; 50 µM,0.232
same,log2 mean competition ratio,[1]; 200 µM,0.0469
same,log2 mean competition ratio,[2]; 50 µM,-0.74
same,log2 mean competition ratio,[2]; 200 µM,-0.111
TRAPPC13 C332 (UniProt A5PLN9),log2 mean competition ratio,[1]; 50 µM,-0.23
same,log2 mean competition ratio,[1]; 200 µM,-0.0866
same,log2 mean competition ratio,[2]; 50 µM,-0.224
same,log2 mean competition ratio,[2]; 200 µM,-0.217
TMEM120A C47 (UniProt Q9BXJ8),log2 mean competition ratio,[1]; 50 µM,0.115
same,log2 mean competition ratio,[1]; 200 µM,-0.0482
same,log2 mean competition ratio,[2]; 50 µM,-0.0546
same,log2 mean competition ratio,[2]; 200 µM,0.0274
TRAPPC9 C935 (UniProt Q96Q05),log2 mean competition ratio,[1]; 50 µM,-0.255
same,log2 mean competition ratio,[1]; 200 µM,0.0359
same,log2 mean competition ratio,[2]; 50 µM,-0.326
same,log2 mean competition ratio,[2]; 200 µM,-0.249
TMEM45A C38,log2 mean competition ratio,[1]; 50 µM,-0.0708
same,log2 mean competition ratio,[1]; 200 µM,0.371
same,log2 mean competition ratio,[2]; 50 µM,0.0778
same,log2 mean competition ratio,[2]; 200 µM,0.232
TRIAP1 C47 (UniProt O43715),log2 mean competition ratio,[1]; 50 µM,-0.159
same,log2 mean competition ratio,[1]; 200 µM,0.395
same,log2 mean competition ratio,[2]; 50 µM,-0.0465
same,log2 mean competition ratio,[2]; 200 µM,0.562

# Retrieved one by one from the list above (7):
target,measurement,setting,value
TOPBP1 C238 (UniProt Q92547),log2 mean competition ratio,[1]; 50 µM,0.232
TPMT C234 (UniProt P51580),log2 mean competition ratio,[2]; 200 µM,-0.213
TNRC6C C1637 (UniProt Q9HCJ0),log2 mean competition ratio,[2]; 50 µM,0.41
TRAPPC9 C935 (UniProt Q96Q05),log2 mean competition ratio,[2]; 50 µM,-0.326
TMEM129 C121,log2 mean competition ratio,[1]; 50 µM,0.372
TMEM45A C38,log2 mean competition ratio,[1]; 200 µM,0.371
TNPO1 C862 (UniProt Q92973),log2 mean competition ratio,[1]; 200 µM,0.194

# Quoted from the entries so far for reference:
target,measurement,setting,value
TPMT C234 (UniProt P51580),log2 mean competition ratio,[2]; 200 µM,-0.213
TMF1 C158 (UniProt P82094),log2 mean competition ratio,[1]; 50 µM,-0.538
same,log2 mean competition ratio,[1]; 200 µM,-0.264
same,log2 mean competition ratio,[2]; 50 µM,0.223
